Taken from: PubChem BioAssay AID652272 (Drosophila RNAi Screening Center, 2013)
The screen tested about 21,000 reagents; shown is a random part of those that have a named target and a result. Over the whole deposit, 503 (2.4%) got an active call. 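Raw plate light values, not normalised; calls rest on replicate z-scores that were not deposited; hits include reporter decreases as well as increases.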 Names joined by + are all predicted targets of the reagent. Not given: the amount of reagent, the time to read-out.

Aim: 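Genome-wide knock-down search for components of Hedgehog signalling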 (primary screen)
Cells: Drosophila clone 8 (Cl8) cells
Reagents: long dsRNA against Drosophila genes
Detection: 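Plate reader light from a firefly reporter under a ptc promoter fragment that responds to Hedgehog, with Renilla light as transfection reference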
Direction: firefly Hh reporter signal: higher = more ptc reporter light; Renilla reference signal: higher = more Renilla control light
Call rule: 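Hit when the z-score averaged over two replicates is under -2 or over +3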
Meaning of the calls: active = hit: reporter lowered or raised; inactive = not a hit

no.	gene	DRSC id	firefly Hh reporter signal, replicate 1	firefly Hh reporter signal, replicate 2	firefly Hh reporter signal, replicate 3	Renilla reference signal, replicate 1	Renilla reference signal, replicate 2	outcome
1	Gycalpha99B	DRSC16690	82706	1.19e5		2113	3195	inactive
2	CG34427	DRSC09978	36964	63728		4528	3990	inactive
3	Vha36-2	DRSC06294	98845	44099		2154	3089	inactive
4	CG42402	DRSC21116	75910	3.27e5		2368	13660	inactive
5	CG31823	DRSC01887	80480	59915		2385	5691	inactive
6	CG6901	DRSC16129	1.14e5	89995		1538	2137	inactive
7	Muc68Ca	DRSC10312	4.62e5	65590		2295	2295	inactive
8	Muc68Ca	DRSC10313	43971	40930	85025	4483	5932	inactive
9	CG13369	DRSC18481	63642	1.75e5		3014	9974	inactive
10	Gbeta5	DRSC17754	59271	2.59e5		2406	9651	inactive
11	CG18128	DRSC04304	60311	41190		1620	4210	inactive
12	a10	DRSC11319	1.05e5			5570	3197	inactive
13	CG18547	DRSC15345	1.08e5	73045		3763	1056	inactive
14	CG10177	DRSC14201	5.70e5	80328		26124	2067	inactive
15	CG12384	DRSC06145	1.78e5	1.33e5		7604	4293	inactive
16	mIF2	DRSC14510	93456	1.41e5		1969	4549	inactive
17	Rpn12	DRSC11275	31735			3648	2151	active
18	Tango14	DRSC00667	1.31e5	96810		3115	2680	inactive
19	GstD11	DRSC15251	62538	1.48e5		2194	3492	inactive
20	CG12974	DRSC11684	1.34e5	1.28e5		4467	3488	inactive
21	MICU1	DRSC02752	34960	64005		1907	2515	inactive
22	CG11248	DRSC11644	1.02e5	97414		4688	4608	inactive
23	MTA1-like	DRSC12382	63237	66284		2384	2049	inactive
24	per	DRSC18818	51122	2.39e5		1994	9478	inactive
25	Rab9Db + Rab9Fa	DRSC18445	64899	2.44e5		1392	9128	inactive
26	CG13255	DRSC11702	1.23e5	1.38e5		4371	3860	inactive
27	srp	DRSC13125	54432	1.97e5		11607	3095	inactive
28	srp	DRSC17068	68113	56425		1000	3992	inactive
29	Acp95EF + Spase22-23	DRSC14102	6.42e5	1.20e5		30586	3812	inactive
30	Ctu1	DRSC07069	71968	37398		1905	4108	inactive
31	Wdr82	DRSC02595	2.15e5	7.27e5	1.32e5	8076	42995	inactive
32	by	DRSC16482	49756	71637		1661	1996	inactive
33	GILT1	DRSC16565	1.86e5	75155		6553	2438	inactive
34	CG14232	DRSC19588	87952	1.01e5		2695	3173	inactive
35	Slc25A46a	DRSC20125	1.06e5	1.08e5		2666	2763	inactive
36	sgg	DRSC17228	5.44e5	2.64e5		29722	6042	inactive
37	sgg	DRSC17722	5.47e5	2.70e5		26677	5409	inactive
38	sgg	DRSC18832	70440	1.33e5		1920	5115	inactive
39	asf1	DRSC11324	54765	75731		2378	2763	inactive
40	pod1	DRSC18362	75108	46041		1840	1082	inactive
41	Kap-alpha3	DRSC16976	98340	80784		3705	2224	inactive
42	mRpL43	DRSC04508	1.11e5	6.29e5	69859	3922	37748	inactive
43	CG15550	DRSC15088	76262	1.17e5		2620	3313	inactive
44	CG14963	DRSC08422	82968	27682		2372	285	inactive
45	CG5756	DRSC06950	57420	96938		1592	6293	inactive
46	CG13403	DRSC19535	78192	3.05e5		1891	12676	inactive
47	dila	DRSC06607	1.69e5	63705		3209	4389	inactive
48	CG13323	DRSC06360	1.04e5	58520		2613	4584	inactive
49	Gk1	DRSC08533	81929	43257		3376	1792	inactive
50	Gk1	DRSC08534	79380	40914		2247	2744	inactive
51	Pburs	DRSC02483	1.17e5	48332		3152	4845	inactive
52	ND-20L	DRSC15414	1.78e5	1.24e5		6586	4101	inactive
53	Tsp42Ef	DRSC06191	82828	60933		2097	5528	inactive
54	CG9109	DRSC03139	87472	48864		3845	2054	inactive
55	kibra	DRSC14533	83296	90400		3074	2691	inactive
56	kibra	DRSC16257	43323	21778		1453	631	inactive
57	betaTub56D	DRSC07583	58656	43660		1626	3147	inactive

Not a retest: an excerpt of the list.
no.	gene	DRSC id	firefly Hh reporter signal, replicate 1	firefly Hh reporter signal, replicate 2	firefly Hh reporter signal, replicate 3	Renilla reference signal, replicate 1	Renilla reference signal, replicate 2	outcome
22	CG11248	DRSC11644	1.02e5	97414		4688	4608	inactive
23	MTA1-like	DRSC12382	63237	66284		2384	2049	inactive
24	per	DRSC18818	51122	2.39e5		1994	9478	inactive
25	Rab9Db + Rab9Fa	DRSC18445	64899	2.44e5		1392	9128	inactive
26	CG13255	DRSC11702	1.23e5	1.38e5		4371	3860	inactive
27	srp	DRSC13125	54432	1.97e5		11607	3095	inactive
28	srp	DRSC17068	68113	56425		1000	3992	inactive
29	Acp95EF + Spase22-23	DRSC14102	6.42e5	1.20e5		30586	3812	inactive
30	Ctu1	DRSC07069	71968	37398		1905	4108	inactive
